# Assay results reported in the supplement of paper PMC8728848.
# This is one part of the list.
# B1: EUL D1A (Oryza sativa) (protein)
# chain: MFGFGHHHNQAPAAPSDPNQIFKIFCRANENYCLTVRDSAVVLAPVNPKDEHQHWFKDMRFSTKVKDGEGMPAFALVNKATGLAVKHSLGQSHPVKLVPFNPEYEDASVLWTESKDVGKGFRCIRMVNNTRLNLDAFHGDKDHGGVRDGTTVVLWEWCKGDNQSWKILPWGPEAHSSSPGAATACTIGGVPVHTVRVFSAAGEDYCLTVRNGTACLAPKNPRDDYQHWIKDMRHSNKIRDEEGYPAFALVNKVTGEAIKHSTGQGHPVKLVPYNPEYQDESVLWTESKDVGKGFRCIRMVNNIYLNFDAFHGDKDHGGIHDGTEIVLWKWCEGDNQRWKILPWILEQKLISEEDLNSAVDHHHHHH
# Tests used:
# Assay in all cases: glycan array binding signal (z-score within array); higher = stronger binding
# Settings in all cases: glycan notation: IUPAC condensed, linker removed
# [1] = target: Gal(b1-4)GlcNAc(b1-2)Man(a1-6)[Man(a1-3)]Man(b1-4)GlcNAc(b1-4)GlcNAc
# In short: (§1)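 Glycan array binding is given as a within-array Z-score, which can be read as non-binding when negative. The arrays, 3228 of them, came from the Consortium for Functional Glycomics database and were retained only where the protein sequence was available. Z-scores were averaged across arrays of the same protein sequence at different concentrations or buffers and across linkers.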
# [2] = target: Gal(b1-4)GlcNAc(b1-2)[Gal(b1-4)GlcNAc(b1-4)]Man(a1-3)[Gal(b1-4)GlcNAc(b1-2)Man(a1-6)]Man(b1-4)GlcNAc(b1-4)GlcNAc
# In short: as §1
# [3] = target: Gal(b1-4)GlcNAc(b1-2)[Gal(b1-4)GlcNAc(b1-4)]Man(a1-3)[Gal(b1-4)GlcNAc(b1-2)[Gal(b1-4)GlcNAc(b1-6)]Man(a1-6)]Man(b1-4)GlcNAc(b1-4)GlcNAc
# In short: as §1
# [4] = target: Gal(b1-4)GlcNAc(b1-2)[Gal(b1-4)GlcNAc(b1-4)]Man(a1-3)[GlcNAc(b1-4)][Gal(b1-4)GlcNAc(b1-2)Man(a1-6)]Man(b1-4)GlcNAc(b1-4)GlcNAc
# In short: as §1
# [5] = target: Gal(b1-4)GlcNAc(b1-2)[Gal(b1-4)GlcNAc(b1-4)]Man(a1-3)[GlcNAc(b1-4)][Gal(b1-4)GlcNAc(b1-2)[Gal(b1-4)GlcNAc(b1-6)]Man(a1-6)]Man(b1-4)GlcNAc(b1-4)GlcNAc
# In short: as §1
# [6] = target: Gal(b1-4)GlcNAc(b1-2)[Gal(b1-4)GlcNAc(b1-6)]Man(a1-6)[Gal(b1-4)GlcNAc(b1-2)Man(a1-3)]Man(b1-4)GlcNAc(b1-4)GlcNAc
# In short: as §1
# [7] = target: Gal(b1-4)GlcNAc(b1-2)[Gal(b1-4)GlcNAc(b1-6)]Man(a1-6)[Gal(b1-4)GlcNAc(b1-2)Man(a1-3)]Man(b1-4)GlcNAc(b1-4)[Fuc(a1-6)]GlcNAc
# In short: as §1
# [8] = target: Gal(b1-4)GlcNAc(b1-2)[Gal(b1-4)GlcNAc(b1-6)]Man(a1-6)[GlcNAc(b1-4)][Gal(b1-4)GlcNAc(b1-2)Man(a1-3)]Man(b1-4)GlcNAc(b1-4)GlcNAc
# In short: as §1
# [9] = target: Gal(b1-4)GlcNAc(b1-2)[Gal(b1-4)GlcNAc(b1-6)]Man(a1-6)[GlcNAc(b1-4)][Gal(b1-4)GlcNAc(b1-2)[Gal(b1-4)GlcNAc(b1-4)]Man(a1-3)]Man(b1-4)GlcNAc(b1-4)[Fuc(a1-6)]GlcNAc
# In short: as §1
# [10] = target: Gal(b1-4)GlcNAc(b1-3)Gal(b1-3)GalNAc
# In short: as §1
# [11] = target: Gal(b1-4)GlcNAc(b1-3)Gal(b1-3)GlcNAc
# In short: as §1
# [12] = target: Gal(b1-4)GlcNAc(b1-3)Gal(b1-4)Glc
# In short: as §1
# [13] = target: Gal(b1-4)GlcNAc(b1-3)Gal(b1-4)GlcNAc
# In short: as §1
# [14] = target: Gal(b1-4)GlcNAc(b1-3)Gal(b1-4)GlcNAc(b1-2)Man(a1-3)[Gal(b1-4)GlcNAc(b1-3)Gal(b1-4)GlcNAc(b1-2)Man(a1-6)]Man(b1-4)GlcNAc(b1-4)GlcNAc
# In short: as §1
# [15] = target: Gal(b1-4)GlcNAc(b1-3)Gal(b1-4)GlcNAc(b1-2)Man(a1-3)[Gal(b1-4)GlcNAc(b1-3)Gal(b1-4)GlcNAc(b1-2)Man(a1-6)]Man(b1-4)GlcNAc(b1-4)[Fuc(a1-6)]GlcNAc
# In short: as §1
# [16] = target: Gal(b1-4)GlcNAc(b1-3)Gal(b1-4)GlcNAc(b1-2)[Gal(b1-4)GlcNAc(b1-3)Gal(b1-4)GlcNAc(b1-6)]Man(a1-6)[Gal(b1-4)GlcNAc(b1-3)Gal(b1-4)GlcNAc(b1-2)Man(a1-3)]Man(b1-4)GlcNAc(b1-4)GlcNAc
# In short: as §1
# [17] = target: Gal(b1-4)GlcNAc(b1-3)Gal(b1-4)GlcNAc(b1-2)[Gal(b1-4)GlcNAc(b1-3)Gal(b1-4)GlcNAc(b1-6)]Man(a1-6)[Gal(b1-4)GlcNAc(b1-3)Gal(b1-4)GlcNAc(b1-2)Man(a1-3)]Man(b1-4)GlcNAc(b1-4)[Fuc(a1-6)]GlcNAc
# In short: as §1
# [18] = target: Gal(b1-4)GlcNAc(b1-3)Gal(b1-4)GlcNAc(b1-3)Gal(b1-4)GlcNAc
# In short: as §1
binder,measurement,setting,value
B1,glycan array binding signal (z-score),[1],-0.638
same,glycan array binding signal (z-score),[2],-0.621
same,glycan array binding signal (z-score),[3],-0.233
same,glycan array binding signal (z-score),[4],0.756
same,glycan array binding signal (z-score),[5],-0.827
same,glycan array binding signal (z-score),[6],0.366
same,glycan array binding signal (z-score),[7],0.548
same,glycan array binding signal (z-score),[8],-0.638
same,glycan array binding signal (z-score),[9],0.204
same,glycan array binding signal (z-score),[10],-0.226
same,glycan array binding signal (z-score),[11],0.449
same,glycan array binding signal (z-score),[12],-0.327
same,glycan array binding signal (z-score),[13],-1.1
same,glycan array binding signal (z-score),[14],1.96
same,glycan array binding signal (z-score),[15],0.162
same,glycan array binding signal (z-score),[16],0.1
same,glycan array binding signal (z-score),[17],1.36
same,glycan array binding signal (z-score),[18],-0.076

# Part of the list above in a different format:
binder	measurement	setting	value
B1	glycan array binding signal (z-score)	[3]	-0.233
same	glycan array binding signal (z-score)	[4]	0.756
